One compound from paper PMC6766977 (International Journal of Cancer, 2019) can be followed below.

This test has as its system LNCaP. The test is described as follows: Cell viability. It is filed as cell-based, human. The settings on record: read-out: IC50 inhibition of cell viability LNCaP; 1 nM R1881, 6 days; mean ± SD.

As for `CNC(=O)c1ccc(N2C(=S)N(c3ccc(C#N)c(C(F)(F)F)c3)C(=O)C2(C)C)cc1F` [Enzalutamide, reference compound], the IC50 turned out to be 0.77 ± 0.36 µM.

A word on the IC50: it is the concentration that gives 50% inhibition.
